The list shows a part of the results.

Protein sequences, listed by entry. Tags and fused reporters are not part of them. Lines headed by an entry give the natural chain unless they say otherwise; changes in a name come on top.
UniProt P32189: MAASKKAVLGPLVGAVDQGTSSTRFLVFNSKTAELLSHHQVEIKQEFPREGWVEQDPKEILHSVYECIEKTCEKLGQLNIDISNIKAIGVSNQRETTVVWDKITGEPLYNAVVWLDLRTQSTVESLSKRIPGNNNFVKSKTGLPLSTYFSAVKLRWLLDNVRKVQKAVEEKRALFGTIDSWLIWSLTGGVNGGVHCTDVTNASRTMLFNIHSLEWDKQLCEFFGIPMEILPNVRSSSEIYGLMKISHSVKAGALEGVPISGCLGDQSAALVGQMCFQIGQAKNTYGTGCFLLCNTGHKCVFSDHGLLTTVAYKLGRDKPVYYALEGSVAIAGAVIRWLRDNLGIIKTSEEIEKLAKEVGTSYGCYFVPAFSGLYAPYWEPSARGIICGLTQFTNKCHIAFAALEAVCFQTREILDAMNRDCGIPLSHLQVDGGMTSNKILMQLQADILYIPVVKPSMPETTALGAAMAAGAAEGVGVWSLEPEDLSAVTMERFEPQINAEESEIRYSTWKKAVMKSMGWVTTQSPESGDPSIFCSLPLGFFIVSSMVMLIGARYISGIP
UniProt P62993, whole entry, looked up: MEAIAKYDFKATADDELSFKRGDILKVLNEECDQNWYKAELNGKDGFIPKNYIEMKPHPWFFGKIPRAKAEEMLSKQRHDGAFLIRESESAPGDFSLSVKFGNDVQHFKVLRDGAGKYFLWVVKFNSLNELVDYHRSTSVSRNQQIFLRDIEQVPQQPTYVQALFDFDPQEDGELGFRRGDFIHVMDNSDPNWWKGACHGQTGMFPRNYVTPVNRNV
UniProt Q9BRT9, whole entry, looked up: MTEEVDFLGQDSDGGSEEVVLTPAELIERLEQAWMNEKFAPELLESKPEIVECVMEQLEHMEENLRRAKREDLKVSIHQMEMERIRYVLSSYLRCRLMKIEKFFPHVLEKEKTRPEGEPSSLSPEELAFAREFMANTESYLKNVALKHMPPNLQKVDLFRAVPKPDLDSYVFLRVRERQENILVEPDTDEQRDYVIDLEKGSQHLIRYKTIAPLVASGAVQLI
UniProt O75791: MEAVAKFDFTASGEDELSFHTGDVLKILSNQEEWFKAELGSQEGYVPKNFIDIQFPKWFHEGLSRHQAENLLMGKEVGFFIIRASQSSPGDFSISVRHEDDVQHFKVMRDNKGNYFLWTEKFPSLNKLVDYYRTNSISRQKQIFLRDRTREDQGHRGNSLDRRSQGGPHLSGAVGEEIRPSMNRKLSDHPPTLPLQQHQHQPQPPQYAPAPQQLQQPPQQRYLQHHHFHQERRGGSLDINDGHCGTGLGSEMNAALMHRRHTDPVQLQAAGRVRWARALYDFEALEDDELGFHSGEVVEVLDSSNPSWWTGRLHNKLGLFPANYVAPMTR
UniProt Q8N335: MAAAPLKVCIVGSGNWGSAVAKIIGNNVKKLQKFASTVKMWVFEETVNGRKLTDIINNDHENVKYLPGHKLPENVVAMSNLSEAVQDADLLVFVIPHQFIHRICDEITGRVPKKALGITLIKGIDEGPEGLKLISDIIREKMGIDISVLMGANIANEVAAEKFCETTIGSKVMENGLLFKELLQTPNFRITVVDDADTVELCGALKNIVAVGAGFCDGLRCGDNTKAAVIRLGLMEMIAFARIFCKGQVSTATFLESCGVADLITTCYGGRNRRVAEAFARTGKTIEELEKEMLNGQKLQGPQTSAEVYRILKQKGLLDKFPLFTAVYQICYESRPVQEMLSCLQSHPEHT
UniProt O95249: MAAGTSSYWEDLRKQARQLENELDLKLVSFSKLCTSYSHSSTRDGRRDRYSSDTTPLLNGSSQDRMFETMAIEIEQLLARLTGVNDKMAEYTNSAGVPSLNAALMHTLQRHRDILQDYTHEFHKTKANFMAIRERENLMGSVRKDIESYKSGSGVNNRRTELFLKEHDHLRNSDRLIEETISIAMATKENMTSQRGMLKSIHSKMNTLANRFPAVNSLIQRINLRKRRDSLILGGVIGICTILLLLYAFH
UniProt P43304: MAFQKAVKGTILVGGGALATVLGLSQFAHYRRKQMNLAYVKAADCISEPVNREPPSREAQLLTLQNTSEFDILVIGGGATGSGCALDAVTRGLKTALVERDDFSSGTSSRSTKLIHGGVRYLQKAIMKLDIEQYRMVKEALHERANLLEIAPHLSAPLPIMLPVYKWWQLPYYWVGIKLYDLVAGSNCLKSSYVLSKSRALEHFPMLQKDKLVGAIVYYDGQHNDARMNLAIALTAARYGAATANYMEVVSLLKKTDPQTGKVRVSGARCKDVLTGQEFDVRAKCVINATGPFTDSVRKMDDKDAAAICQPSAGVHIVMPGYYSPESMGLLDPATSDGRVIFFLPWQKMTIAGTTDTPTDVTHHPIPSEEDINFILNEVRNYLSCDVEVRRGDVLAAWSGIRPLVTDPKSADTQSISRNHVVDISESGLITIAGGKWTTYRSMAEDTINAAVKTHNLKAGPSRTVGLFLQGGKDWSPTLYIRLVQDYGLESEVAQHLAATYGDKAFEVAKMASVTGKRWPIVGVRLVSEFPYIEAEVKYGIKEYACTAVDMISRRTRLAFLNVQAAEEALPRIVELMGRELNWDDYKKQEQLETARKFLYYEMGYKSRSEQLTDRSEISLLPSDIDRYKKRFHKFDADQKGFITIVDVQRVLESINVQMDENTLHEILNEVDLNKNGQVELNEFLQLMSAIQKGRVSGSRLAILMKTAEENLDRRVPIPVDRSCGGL
UniProt Q8TDQ7: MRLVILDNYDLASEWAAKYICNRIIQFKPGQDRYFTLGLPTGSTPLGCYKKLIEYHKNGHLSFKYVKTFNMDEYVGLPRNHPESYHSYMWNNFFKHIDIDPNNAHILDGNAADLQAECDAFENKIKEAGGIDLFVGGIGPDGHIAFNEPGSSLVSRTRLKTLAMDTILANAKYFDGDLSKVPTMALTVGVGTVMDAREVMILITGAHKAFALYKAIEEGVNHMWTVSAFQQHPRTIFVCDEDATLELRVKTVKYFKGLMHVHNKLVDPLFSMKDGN
UniProt Q9P2T1: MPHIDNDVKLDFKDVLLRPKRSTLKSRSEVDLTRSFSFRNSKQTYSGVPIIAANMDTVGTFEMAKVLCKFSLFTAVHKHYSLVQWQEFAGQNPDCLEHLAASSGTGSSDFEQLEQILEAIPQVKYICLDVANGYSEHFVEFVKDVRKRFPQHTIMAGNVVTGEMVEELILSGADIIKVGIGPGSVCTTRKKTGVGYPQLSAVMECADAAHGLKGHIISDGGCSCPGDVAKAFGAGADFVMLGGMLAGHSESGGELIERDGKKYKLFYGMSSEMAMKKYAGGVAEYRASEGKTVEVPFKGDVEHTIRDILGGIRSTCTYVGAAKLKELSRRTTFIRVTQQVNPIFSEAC
UniProt Q9Y223: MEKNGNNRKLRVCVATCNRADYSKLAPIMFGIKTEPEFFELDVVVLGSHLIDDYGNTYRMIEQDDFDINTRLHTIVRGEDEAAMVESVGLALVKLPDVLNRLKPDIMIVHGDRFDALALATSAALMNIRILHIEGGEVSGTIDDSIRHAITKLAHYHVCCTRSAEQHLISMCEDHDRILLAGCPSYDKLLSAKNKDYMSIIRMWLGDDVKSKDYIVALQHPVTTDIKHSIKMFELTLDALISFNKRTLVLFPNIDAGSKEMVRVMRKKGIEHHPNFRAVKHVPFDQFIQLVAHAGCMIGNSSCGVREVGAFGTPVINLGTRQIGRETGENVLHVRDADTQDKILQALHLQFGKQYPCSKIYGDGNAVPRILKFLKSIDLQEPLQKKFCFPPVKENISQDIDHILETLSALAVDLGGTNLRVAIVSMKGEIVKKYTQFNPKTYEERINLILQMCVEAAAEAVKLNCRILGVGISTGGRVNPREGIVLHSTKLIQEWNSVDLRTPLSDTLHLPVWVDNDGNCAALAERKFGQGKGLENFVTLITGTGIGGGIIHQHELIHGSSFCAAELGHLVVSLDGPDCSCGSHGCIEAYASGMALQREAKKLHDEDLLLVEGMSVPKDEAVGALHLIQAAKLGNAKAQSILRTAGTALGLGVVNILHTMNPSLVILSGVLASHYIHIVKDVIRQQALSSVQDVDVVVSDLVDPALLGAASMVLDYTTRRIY
UniProt O43292: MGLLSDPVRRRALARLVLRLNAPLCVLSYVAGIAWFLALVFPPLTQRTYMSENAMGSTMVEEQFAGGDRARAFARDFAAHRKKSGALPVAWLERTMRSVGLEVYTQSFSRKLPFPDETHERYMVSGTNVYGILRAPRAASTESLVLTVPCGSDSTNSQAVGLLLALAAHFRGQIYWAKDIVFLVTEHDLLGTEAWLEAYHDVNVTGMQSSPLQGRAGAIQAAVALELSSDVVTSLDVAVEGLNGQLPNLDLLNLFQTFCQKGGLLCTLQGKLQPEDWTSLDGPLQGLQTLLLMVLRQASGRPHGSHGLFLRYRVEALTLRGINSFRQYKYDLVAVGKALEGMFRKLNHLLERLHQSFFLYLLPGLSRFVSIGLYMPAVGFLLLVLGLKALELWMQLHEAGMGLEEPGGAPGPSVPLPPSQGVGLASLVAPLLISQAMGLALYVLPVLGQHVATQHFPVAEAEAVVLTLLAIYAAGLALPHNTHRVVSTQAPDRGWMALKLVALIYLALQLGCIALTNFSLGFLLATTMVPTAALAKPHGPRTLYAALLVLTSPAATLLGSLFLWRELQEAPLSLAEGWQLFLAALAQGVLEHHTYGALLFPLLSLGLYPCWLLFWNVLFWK
UniProt Q5VW38: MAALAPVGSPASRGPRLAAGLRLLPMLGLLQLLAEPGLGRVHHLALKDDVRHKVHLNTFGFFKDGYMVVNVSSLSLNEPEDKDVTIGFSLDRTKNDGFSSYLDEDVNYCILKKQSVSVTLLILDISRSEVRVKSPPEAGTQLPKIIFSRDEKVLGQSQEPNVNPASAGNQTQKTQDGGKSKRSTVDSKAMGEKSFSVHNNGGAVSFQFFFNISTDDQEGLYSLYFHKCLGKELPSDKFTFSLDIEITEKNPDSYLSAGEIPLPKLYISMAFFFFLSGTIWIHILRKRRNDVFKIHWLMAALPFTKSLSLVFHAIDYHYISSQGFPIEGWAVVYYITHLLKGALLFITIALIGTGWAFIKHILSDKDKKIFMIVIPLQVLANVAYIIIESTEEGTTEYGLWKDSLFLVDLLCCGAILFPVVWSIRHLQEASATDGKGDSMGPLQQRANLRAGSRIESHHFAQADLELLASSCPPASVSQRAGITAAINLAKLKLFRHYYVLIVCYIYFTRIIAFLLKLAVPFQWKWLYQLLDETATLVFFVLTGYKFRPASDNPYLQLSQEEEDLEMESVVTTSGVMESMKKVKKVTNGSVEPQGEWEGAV
UniProt O00461: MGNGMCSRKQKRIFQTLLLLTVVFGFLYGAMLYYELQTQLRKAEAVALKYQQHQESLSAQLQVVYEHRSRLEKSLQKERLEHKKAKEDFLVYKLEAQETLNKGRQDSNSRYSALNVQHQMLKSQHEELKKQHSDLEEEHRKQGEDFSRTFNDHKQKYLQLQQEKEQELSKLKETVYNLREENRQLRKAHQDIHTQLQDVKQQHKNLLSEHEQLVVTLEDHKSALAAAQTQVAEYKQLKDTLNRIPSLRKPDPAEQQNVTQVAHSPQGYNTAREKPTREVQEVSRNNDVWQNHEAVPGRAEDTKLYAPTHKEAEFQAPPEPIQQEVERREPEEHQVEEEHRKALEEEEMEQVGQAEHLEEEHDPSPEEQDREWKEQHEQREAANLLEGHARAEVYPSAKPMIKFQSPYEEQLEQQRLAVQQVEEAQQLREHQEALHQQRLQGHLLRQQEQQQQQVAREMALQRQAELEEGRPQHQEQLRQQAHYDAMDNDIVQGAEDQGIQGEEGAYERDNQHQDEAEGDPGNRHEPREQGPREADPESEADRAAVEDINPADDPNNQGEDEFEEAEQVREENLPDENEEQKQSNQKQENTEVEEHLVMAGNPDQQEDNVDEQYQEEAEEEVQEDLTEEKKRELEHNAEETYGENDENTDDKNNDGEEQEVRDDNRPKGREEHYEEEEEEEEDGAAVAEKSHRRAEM
UniProt Q9HCN4, whole entry, looked up: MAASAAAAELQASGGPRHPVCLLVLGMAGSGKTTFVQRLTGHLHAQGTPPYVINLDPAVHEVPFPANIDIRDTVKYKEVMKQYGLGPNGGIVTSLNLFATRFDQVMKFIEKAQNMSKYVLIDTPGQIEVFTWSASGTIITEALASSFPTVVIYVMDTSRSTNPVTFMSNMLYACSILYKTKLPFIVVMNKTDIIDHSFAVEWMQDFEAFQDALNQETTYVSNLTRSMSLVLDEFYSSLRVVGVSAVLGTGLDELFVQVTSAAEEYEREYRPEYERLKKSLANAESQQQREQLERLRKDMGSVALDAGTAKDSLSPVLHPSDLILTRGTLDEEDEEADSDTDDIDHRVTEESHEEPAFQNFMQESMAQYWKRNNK
UniProt Q9Y3E0: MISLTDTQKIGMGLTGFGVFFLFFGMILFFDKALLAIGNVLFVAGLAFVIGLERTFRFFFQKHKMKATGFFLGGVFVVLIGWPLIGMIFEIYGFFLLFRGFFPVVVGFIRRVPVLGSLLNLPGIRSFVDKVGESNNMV

The results in this text go back to the supplement of paper PMC10849652.

Compound in this test: C[C@H](Nc1ncnc2nc[nH]c12)c1cc2cccc(Cl)c2c(=O)n1-c1ccccc1 [duvelisib]
Kind of test: log2 fold change, soluble protein after heating vs DMSO (PISA); higher = thermal stabilisation; K562 cells, 10 uM, 30 min; active = over 0.2 and 3.5 SD of the protein, either way, in both replicates (recomputed). The gist of the method:
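Quantification of soluble protein used TMTpro 16plex LC-MS/MS, with channel sums equalised. Samples were the supernatant after 21,000xg for 90 min of pooled aliquots from K562 cells (2×10^6 cells/mL) treated with 10 μM compound for 30 min, heated for 3 min over 48°C-58°C, and extracted in PBS with 0.5% NP-40 at 4°C. Values, from duplicates, describe thermal stability against control samples on a log2 fold-change scale.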
Regarding GMPPB isoform 2 (UniProt Q9Y5P6), the log2 fold change was inactive: 0.004. The result for GK (UniProt P32189) reads inactive: -0.021; that for GRN (UniProt P28799), inactive: 0.074; that for GRB2 (UniProt P62993), inactive: -0.021. Next, GINS4 (UniProt Q9BRT9): inactive: 0.055; GRAP2 (UniProt O75791): inactive: 0.091; GPD1L (UniProt Q8N335): inactive: 0.062. The result for GNA13 (UniProt Q14344) reads inactive: 0.082. For GOSR1 (UniProt O95249), the log2 fold change was inactive: -0.007.

For the target GPATCH8 (UniProt Q9UKJ3), the log2 fold change was inactive: -0.018.

As to GPALPP1 (UniProt Q8IXQ4), the log2 fold change is inactive: 0.032.

With GPD2 (UniProt P43304), the log2 fold change is inactive: -0.004. Take GPRIN1 (UniProt Q7Z2K8): the log2 fold change is inactive: 0.136. Turning to GPN3 isoform 2 (UniProt Q9UHW5), the log2 fold change is inactive: 0.05.

For GNPDA2 (UniProt Q8TDQ7), the log2 fold change was inactive: 0. In the case of GMPR2 isoform 2 (UniProt Q9P2T1), the log2 fold change is inactive: 0.048. Next, GNE isoform 2 (UniProt Q9Y223): inactive: 0.005; GPAA1 (UniProt O43292): inactive: 0.032; GPR107 (UniProt Q5VW38): inactive: 0. The result for GORASP2 isoform 3 (UniProt Q9H8Y8) reads inactive: -0.023; that for GOLIM4 (UniProt O00461), inactive: 0.063; that for GPN1 isoform 5 (UniProt Q9HCN4), inactive: 0.014. In the case of GOLT1B (UniProt Q9Y3E0), the log2 fold change is inactive: 0.004.
